Not every detail of the peptide structures is certain; ends, links or a residue may be inferred. Peptide text beside a SMILES is read from it.
Assays:
[1] = system: endothelial cells; assay: Inhibition of the binding of 125I-labeled peptide Hep-II to the cell surface by excess unlabeled peptide; design: species or system bovine; details: unlabeled peptide up to 500-fold excess; 15 min. at 4° C.
Description: Endothelial cells were grown in culture as discussed in examples 4 and 5A (supra). On the day of the experiment, the cells were harvested by trypsinization (supra) and were co-incubated with 50 μl of peptide Hep-II. 50 μl a constant amount of ^125 I-labeled peptide Hep-II was mixed with increasing concentrations of unlabeled peptide Hep-II or a control peptide (maximal excess of unlabeled peptide: 500-fold over radiolabeled Hep-II). 50 μl of each concentration of unlabeled peptide which was mixed with radiolabeled Hep-II were then added to cells in suspension (5,000 cells per concentration of peptide). The cells were incubated with the mixture of unlabeled-radiolabeled peptide for 15 min. at 4° C. and they were then pelleted. The cells were subsequently washed and bound radioactivity was quantitated as described in example 4. […] These experiments provide confirmation that a specific interaction occur between endothelial-cell surfaces and peptide Hep-II.

[2] = system: binding of heparin to type IV collagen; assay: Inhibition of heparin binding to type IV collagen coated on plastic by peptide in solution; details: peptide in solution 0.5 mg/ml to 5 μg/ml; 3H-heparin 500 ng per well; type IV collagen coated at 60 μg/ml
Description: Peptide Hep-II in solution (and not absorbed to plastic), was screened for the ability to inhibit the binding of heparin to intact, native type IV collagen coated on plastic. This experimental approach avoids problems due to differential coating of peptides in heparin binding assays. Type IV collagen at 60 μg/ml in PBS was coated on 96-well plates, using 50 μl per well and dried overnight at 28° C. The wells were then treated for two hours with 2 mg/ml BSA in wash buffer (described above in Example 1). Peptide Hep-II at various dilutions ranging from 0.5 mg/ml to 5 μg/ml in PBS and CHAPS (cholamido-propyl-dimethyl-ammonio-propane-sulfonate) (a detergent used to avoid non-specific sticking) was co-incubated with a standard amount of ^3 H-heparin (500 ng per well […] final concentration) for two hours at 37° C. and the mixture was then transferred to the […] coated plate (50 μl ) and allowed to incubate for another two hours at 37° C. The wells were then washed and radioactivity was counted as described above. […] Peptide Hep-I is also shown in comparison.

[3] = system: bovine aortic endothelial cells; assay: Direct adhesion of endothelial cells to peptide-coated plastic; type: cell-based; details: 35S-labeled cells, 120 min. at 37° C.; increasing coating concentrations
Description: Bovine aortic endothelial cells were isolated according to the following protocol. Aortas were obtained from a local slaughterhouse, washed in cold phosphate buffered saline (PBS) (136 mM NaCl, 2.6 mM KCl, 15.2 mM Na2 HPO4, pH 7.2) and processed within 2 hours. Crude collagenase (CLS III, 125-145 units per mg dry weight, Cooper Biomedical) was used at 2 mg/ml in Dulbecco's modified Eagle's medium (DMEM) (GIBCO). The vessel was clamped at the distal end, filled with the collagenase-PBS solution and digestion was carried out for 10 minutes. The lumenal contents were harvested, followed by the addition of fresh collagenase for two additional 10-minute periods. The enzyme-cell suspensions were added to an equal volume of DMEM containing 10% fetal bovine serum (FBS) to inhibit the enzyme and spun in a centrifuge at 400× g for 10 minutes. The resulting cell pellet was resuspended in DMEM containing 10% FBS, 100 units/ml of penicillin G, 100 μg/ml of streptomycin and 100 μg/ml of crude fibroblast growth factor. Cells are cultured in 75 cm^2 flasks in a humidified 5% CO2 atmosphere at 37° C. Cultures were fed twice a week with the same medium and cells were used in assays when approximately 75% confluent. […] At the end of the incubation period the wells were washed, bound radioactivity was solubilized by 1% SDS-0.5 N NaOH and quantitated in a Beckman scintillation counter. […]

[4] = system: bovine aortic endothelial cells; assay: Inhibition of adhesion of bovine aortic endothelial cells to type IV collagen; type: cell-based; details: peptide in solution, 15 min. co-incubation, 20 min. on type IV collagen coated wells at 37° C.

Structure (SMILES) | competition of the binding of radiolabeled Hep-II to the surface of endothelial cells [1] | inhibition of heparin binding to type IV collagen [2] | adhesion of endothelial cells to coated substrate [3] | competition for the binding of endothelial cells to type IV collagen [4]
CC[C@H](C)[C@H](NC(=O)[C@@H](NC(=O)[C@H](CCCNC(=N)N)NC(=O)[C@H](CO)NC(=O)[C@H](CC(=O)O)NC(=O)CN)[C@@H](C)O)C(=O)N[C@H](C(=O)N[C@H](C(=O)N[C@@H](CCCCN)C(=O)NCC(=O)N[C@@H](CCC(=O)O)C(=O)N[C@@H](CCCNC(=N)N)C(=O)NCC(=O)N[C@@H](CCC(N)=O)C(=O)N1CCC[C@H]1C(=O)O)[C@@H](C)O)[C@@H](C)O [ET-2, GDSRTITTKGERGQP] (H-GDSRTITTKGERGQP-OH) | failed to compete |  |  | 
CC[C@H](C)[C@H](NC(=O)[C@H](CCCCN)NC(=O)[C@@H](NC(=O)CNC(=O)[C@@H]1CCCN1C(=O)[C@@H]1CCCN1C(=O)[C@H](CS)NC(=O)[C@H](CC(C)C)NC(=O)[C@@H]1CCCN1C(=O)[C@@H](N)CC(N)=O)[C@@H](C)O)C(=O)N[C@@H](CC(C)C)C(=O)O [peptide 1, NPLCPPGTKIL] (H-NPLCPPGTKIL-OH) |  | unable to compete | did not show any significant adhesion | could not compete
CC(C)C[C@H](NC(=O)CNC(=O)[C@@H]1CCCN1C(=O)[C@H](CC(C)C)NC(=O)CNC(=O)[C@H](CCCCN)NC(=O)[C@H](CC(=O)O)NC(=O)CNC(=O)[C@H](CCCCN)NC(=O)[C@H](CCC(=O)O)NC(=O)CN)C(=O)N[C@@H](CC(=O)O)C(=O)O [peptide 14, GEKGDKGLPGLD] (H-GEKGDKGLPGLD-OH) |  |  |  | could not compete
